Binding data for 1 substance are collected here from publication PMC12687436.

Sequences of proteins named here, by UniProt entry; tags and fusion partners are left off.
UniProt P09493: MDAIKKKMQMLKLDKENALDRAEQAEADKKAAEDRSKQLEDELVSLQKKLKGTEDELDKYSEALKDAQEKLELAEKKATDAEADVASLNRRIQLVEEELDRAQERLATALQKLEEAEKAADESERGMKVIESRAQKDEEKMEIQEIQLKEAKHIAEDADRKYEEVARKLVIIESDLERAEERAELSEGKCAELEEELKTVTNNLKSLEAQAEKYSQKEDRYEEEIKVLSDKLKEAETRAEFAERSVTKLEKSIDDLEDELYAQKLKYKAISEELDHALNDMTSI

Results are given in words; binding and its absence hold for the method and conditions named. Binding seen in cells or lysates may run through a third protein. A yes stands for co-enrichment or nearness to the bait. Other partners may have been found. Tags and fused reporters may be left off the sequences shown.

This experiment deals with T1, Tetraspanin 4 (TSPAN4), HA-tagged, overexpressed in VSMCs (UniProt O14817).
T1 sequence: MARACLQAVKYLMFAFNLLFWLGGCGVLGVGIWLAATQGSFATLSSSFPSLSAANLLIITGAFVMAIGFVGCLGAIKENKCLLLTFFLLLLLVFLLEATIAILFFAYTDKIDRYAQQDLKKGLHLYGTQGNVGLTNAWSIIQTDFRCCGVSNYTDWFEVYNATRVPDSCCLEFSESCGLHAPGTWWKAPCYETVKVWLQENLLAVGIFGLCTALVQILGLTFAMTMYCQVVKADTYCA
Briefly: affinity purification with mass spectrometry; HA-tag immunoprecipitation from lysates of VSMCs overexpressing HA-tagged TSPAN4 (IP lysis buffer: 150 mM KCl, 25 mM Tris pH 7.4, 5 mM EDTA, 0.5 mM DTT, 0.5% NP-40), overnight at 4°C; IgG antibody as control; SDS-PAGE, Coomassie staining, bands excised for mass spectrometry.

“Tropomyosin-1 (TPM1) (from UniProt P09493 1-284)”: the binding entry is on record as “binds”.
